Experimental data taken from article PMC10827748.
No constants are given. Whether binding was seen depends on the method and setting. Binding seen in cells or lysates may run through a third protein. Some entries that bind do so weakly or less than the wild type.

Biological target: T1, UBA6 in cell lysates (co-immunoprecipitation with the UBL domain) (UniProt A0AVT1)
T1 sequence: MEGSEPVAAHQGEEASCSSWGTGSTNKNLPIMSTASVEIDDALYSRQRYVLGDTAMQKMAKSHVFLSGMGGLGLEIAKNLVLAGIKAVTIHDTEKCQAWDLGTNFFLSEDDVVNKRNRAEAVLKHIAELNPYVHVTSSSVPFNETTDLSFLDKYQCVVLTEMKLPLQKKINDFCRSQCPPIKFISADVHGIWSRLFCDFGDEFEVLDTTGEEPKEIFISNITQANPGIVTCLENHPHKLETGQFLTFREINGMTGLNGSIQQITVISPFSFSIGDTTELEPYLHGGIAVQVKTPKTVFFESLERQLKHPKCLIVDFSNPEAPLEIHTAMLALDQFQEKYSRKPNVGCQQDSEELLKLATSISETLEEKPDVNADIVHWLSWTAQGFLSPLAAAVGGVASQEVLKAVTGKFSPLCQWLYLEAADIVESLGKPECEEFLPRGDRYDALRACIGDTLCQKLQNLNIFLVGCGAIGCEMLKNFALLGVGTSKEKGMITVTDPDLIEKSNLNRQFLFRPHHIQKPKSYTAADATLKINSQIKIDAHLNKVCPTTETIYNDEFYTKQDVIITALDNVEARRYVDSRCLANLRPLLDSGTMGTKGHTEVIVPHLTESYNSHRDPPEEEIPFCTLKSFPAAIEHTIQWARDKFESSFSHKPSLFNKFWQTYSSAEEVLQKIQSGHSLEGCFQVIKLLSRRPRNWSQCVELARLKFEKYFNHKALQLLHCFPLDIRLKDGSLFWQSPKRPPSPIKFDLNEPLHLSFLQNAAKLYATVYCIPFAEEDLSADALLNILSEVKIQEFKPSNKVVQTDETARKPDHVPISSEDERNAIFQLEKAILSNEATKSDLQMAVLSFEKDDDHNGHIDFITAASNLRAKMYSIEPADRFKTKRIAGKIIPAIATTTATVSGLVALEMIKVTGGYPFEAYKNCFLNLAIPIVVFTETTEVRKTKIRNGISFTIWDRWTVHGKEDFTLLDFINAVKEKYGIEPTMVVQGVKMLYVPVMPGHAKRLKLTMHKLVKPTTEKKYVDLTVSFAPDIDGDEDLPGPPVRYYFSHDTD
Assay: co-IP; transfected UBL domain of BIRC6 and UBA6 from cell lysates

binding: binds
B1: UBL domain of BIRC6, transfected (domain or fragment, UniProt O88738 3842-4092)
chain: DEKVTMFLQSPCPLYKGRINATSHVIQHPMFGAGHKFRTLHLPVSTTLSDVLDRVSDTPSITAKLISEQKDDKEKKNHEEKEKVKAENGFQDNYSVVVASGLKSQSKRAMASTPPRPPSRRGRTIPDKIGSASSSADAASKIITVPVFHLFHRLLAGQPLPAEMTLAQLLTLLYDRKLPQGYRSIDLTVKLGSKVITDPSLSKTDSFKRLHPEKDHGDLVGSCPEDEALTPSDECMDGVLDESLLETCPIQ
